# Measurements from patent publication US6143790A, “L-N^6 -(1-iminoethyl)lysine derivatives useful as nitric oxide synthase inhibitors” (G.D. Searle & Co., priority 1996, dated 2000).
# At least one structure is not confirmed: it was looked up by name or label, or the drawing left a doubt.
# Tested on: iNOS
# Assay: % inhibition of iNOS at 100 μM
# Type: biochemical
# Protocol: Citrulline Assay for Nitric Oxide Synthase Nitric oxide synthase activity was measured by monitoring the conversion of L-[2,3-3H]-arginine to L-[2,3-3H]-citrulline (1,2). Human inducible NOS (hiNOS), human endothelial constitutive NOS (hecNOS) and human neuronal constitutive NOS (hncNOS) were each cloned from RNA extracted from human tissue. The recombinant enzymes were expressed in insect cells using a baculovirus vector. Enzyme activity was isolated from cell extracts and partially purified by DEAE-Sepharose chromatography (2). Mouse inducible NOS (miNOS) was prepared from an extract of LPS-treated mouse RAW 264.7 cells and rat brain constitutive NOS (rcNOS) was prepared from an extract of rat cerebellum. Both preparations were partially purified by DEAE-Sepharose chromatography (2). Enzyme and inhibitors were added to give a volume of 50 μL in 50 mM Tris (pH 7.6) and the reaction initiated by the addition of 50 μL of a solution containing 50 mM Tris (pH 7.6), 2.0 mg/mL bovine serum albumin, 2.0 mM DTT, 4.0 mM CaCl2, 20 μM FAD, 100 μM tetrahydrobiopterin, 0.4-2.0 mM NADPH and 60 μM L-arginine containing 0.9 μCi of L-[2,3-3H]-arginine. For constitutive NOS, calmodulin was included at a final concentration of 40-100 nM. […] The [3H]-citrulline was separated by chromatography on Dowex 50W X-8 cation exchange resin and radioactivity quantified with a liquid scintillation counter.
compound,measurement,value
"CC(=N)NCCCCC(N)c1ccccc1 (stereo not shown) [Example 6, N1-(1-iminoethyl)-5-phenyl-1,5-pentanediamine]",% inhibiton iNOS at 100 μM,9%
